Laboratory results: paper PMC10074118
Results are given in words; binding and its absence hold for the method and conditions named. In cells and extracts the contact can be indirect. Some binding calls cover weakened binding; strength is not graded here. Tags and fused reporters may be left off the sequences shown.

Target: T1, Arl6/BBS3 (UniProt Q9H0F7)
T1 sequence: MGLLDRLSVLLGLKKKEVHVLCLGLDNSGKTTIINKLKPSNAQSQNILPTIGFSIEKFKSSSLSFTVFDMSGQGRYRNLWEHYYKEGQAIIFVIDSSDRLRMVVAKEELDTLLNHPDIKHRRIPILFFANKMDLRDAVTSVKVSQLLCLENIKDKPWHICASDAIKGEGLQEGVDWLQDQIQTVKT
Experiment: co-IP; lysates of HEK293 transiently expressing BBS1 or BBS1 K143R and BBS3; precipitating antibody not told

B1: BBS1‐myc (wild type) (protein, UniProt Q8NFJ9 1-593)
chain: MAAASSSDSDACGAESNEANSKWLDAHYDPMANIHTFSACLALADLHGDGEYKLVVGDLGPGGQQPRLKVLKGPLVMTESPLPALPAAAATFLMEQHEPRTPALALASGPCVYVYKNLRPYFKFSLPQLPPNPLEQDLWNQAKEDRIDPLTLKEMLESIRETAEEPLSIQSLRFLQLELSEMEAFVNQHKSNSIKRQTVITTMTTLKKNLADEDAVSCLVLGTENKELLVLDPEAFTILAKMSLPSVPVFLEVSGQFDVEFRLAAACRNGNIYILRRDSKHPKYCIELSAQPVGLIRVHKVLVVGSTQDSLHGFTHKGKKLWTVQMPAAILTMNLLEQHSRGLQAVMAGLANGEVRIYRDKALLNVIHTPDAVTSLCFGRYGREDNTLIMTTRGGGLIIKILKRTAVFVEGGSEVGPPPAQAMKLNVPRKTRLYVDQTLREREAGTAMHRAFQTDLYLLRLRAARAYLQALESSLSPLSTTAREPLKLHAVVQGLGPTFKLTLHLQNTSTTRPVLGLLVCFLYNEALYSLPRAFFKVPLLVPGLNYPLETFVESLSNKGISDIIKVLVLREGQSAPLLSAHVNMPGSEGLAAA
binding: binds
